Assay results published in publication PMC7377239, “Cardiovascular Effects of Polychlorinated Biphenyls and Their Major Metabolites” (Environmental Health Perspectives, 2020).

System: iPSC-CMs, iPSC-ECs and HUVECs phenotypes
Assay: ToxPi 2.0 integration of POD values and physicochemical descriptors
Parameters: species or system human
Conditions: for huvec.mtl.18hr ToxPi / huvec.tlps.18hr ToxPi / huvec.tta.18hr ToxPi / huvec.ttl.18hr ToxPi / huvec.cyto.24hr ToxPi / huvec.mito.24hr ToxPi / huvec.mitoint.24hr ToxPi / huvec.nma.24hr ToxPi / huvec.tc.24hrs ToxPi: HUVECs; for huvec.mtl.18hr ToxPi / huvec.tlps.18hr ToxPi / huvec.tta.18hr ToxPi / huvec.ttl.18hr ToxPi / huvec.cyto.24hr ToxPi / huvec.mito.24hr ToxPi / huvec.mitoint.24hr ToxPi / huvec.nma.24hr ToxPi / huvec.tc.24hrs ToxPi / endo.mtl.18hr ToxPi / endo.tlps.18hr ToxPi / endo.tta.18hr ToxPi / endo.ttl.18hr ToxPi / endo.cyto.24hr ToxPi / endo.mito.24hr ToxPi / endo.mitoint.24hr ToxPi / endo.nma.24hr ToxPi / endo.tc.24hrs ToxPi: scaled from POD; for endo.mtl.18hr ToxPi / endo.tlps.18hr ToxPi / endo.tta.18hr ToxPi / endo.ttl.18hr ToxPi: iPSC-EC tube formation; for endo.cyto.24hr ToxPi / endo.mito.24hr ToxPi / endo.mitoint.24hr ToxPi / endo.nma.24hr ToxPi / endo.tc.24hrs ToxPi: iPSC-EC
Outline: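 Phenotypic readouts in iPSC-cardiomyocytes, iPSC-endothelial cells and HUVECs were normalised to 0.5% DMSO vehicle and fitted to a four-parameter logistic model. POD set at one SD cutoff of vehicle means, with 100 μM assigned when no response. PODs and physicochemical descriptors combined in ToxPi 2.0 scores.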

Row | SMILES | huvec.mtl.18hr ToxPi | huvec.tlps.18hr ToxPi | huvec.tta.18hr ToxPi | huvec.ttl.18hr ToxPi | huvec.cyto.24hr ToxPi | huvec.mito.24hr ToxPi | huvec.mitoint.24hr ToxPi | huvec.nma.24hr ToxPi | huvec.tc.24hrs ToxPi | cm.amp.avg.24hrs ToxPi (iPSC-CM) | cm.amp.avg.90min ToxPi (iPSC-CM) | endo.mtl.18hr ToxPi | endo.tlps.18hr ToxPi | endo.tta.18hr ToxPi | endo.ttl.18hr ToxPi | endo.cyto.24hr ToxPi | endo.mito.24hr ToxPi | endo.mitoint.24hr ToxPi | endo.nma.24hr ToxPi | endo.tc.24hrs ToxPi | other results
1 | O=S(=O)(O)Oc1ccc(-c2cccc(Cl)c2)cc1Cl [4-yl PCB 11 sulfate] | 0.44 | 0.25 | 0.00 | 0.00 | 0.0743 | 0.09 | 0.44 | 0.45 | 0.0743 | 0.22 | 0.54 | 0.14 | 0.33 | 0.14 | 0.13 | 0.00 | 0.00 | 0.00 | 0.00 | 0.00 | cm.amp.cv.24hrs ToxPi (iPSC-CM): 0.38; cm.amp.cv.90min ToxPi (iPSC-CM): 0.21; cm.bpm.24hrs ToxPi (iPSC-CM): 0.29; cm.bpm.90min ToxPi (iPSC-CM): 0.31; cm.cam.24hrs ToxPi (iPSC-CM): 0.38; cm.cam.90min ToxPi (iPSC-CM): 0.00; cm.decay.rise.24hrs ToxPi (iPSC-CM): 0.33; cm.decay.rise.90min ToxPi (iPSC-CM): 0.42; cm.mii.24hrs ToxPi (iPSC-CM): 0.19; cm.mii.90min ToxPi (iPSC-CM): 0.00; cm.mito.24hrs ToxPi (iPSC-CM): 0.57; cm.mito.90min ToxPi (iPSC-CM): 0.00; cm.spacing.cv.24hrs ToxPi (iPSC-CM): 0.26; cm.spacing.cv.90min ToxPi (iPSC-CM): 0.10; cm.tc.24hrs ToxPi (iPSC-CM): 0.63; cm.tc.90min ToxPi (iPSC-CM): 0.00
2 | O=S(=O)(O)Oc1cc(Cl)c(-c2cc(Cl)ccc2Cl)cc1Cl [4-yl PCB 52 sulfate] | 0.43 | 0.43 | 0.00 | 0.00 | 0.30 | 0.40 | 0.10 | 0.14 | 0.30 |  |  | 0.27 | 0.46 | 0.22 | 0.22 | 0.15 | 0.15 | 0.00 | 0.00 | 0.12 | cm.amp.avg.90min ToxPi (90min): 0.56; cm.amp.cv.90min ToxPi (90min): 0.28; cm.bpm.90min ToxPi (90min): 0.37; cm.cam.90min ToxPi (90min): 0.92; cm.decay.rise.90min ToxPi (90min): 0.47; cm.mii.90min ToxPi (90min): 0.33; cm.mito.90min ToxPi (90min): 0.92; cm.spacing.cv.90min ToxPi (90min): 0.10; cm.tc.90min ToxPi (90min): 0.91; cm.amp.avg.24hrs ToxPi (24hrs): 0.00; cm.amp.cv.24hrs ToxPi (24hrs): 0.43; cm.bpm.24hrs ToxPi (24hrs): 0.37; cm.cam.24hrs ToxPi (24hrs): 0.34; cm.decay.rise.24hrs ToxPi (24hrs): 0.47; cm.mii.24hrs ToxPi (24hrs): 0.21; cm.mito.24hrs ToxPi (24hrs): 0.54; cm.spacing.cv.24hrs ToxPi (24hrs): 0.21; cm.tc.24hrs ToxPi (24hrs): 0.57
3 | Oc1cc(Cl)cc(-c2cccc(Cl)c2)c1 [5-OH PCB 11] | 0.60 | 0.00 | 0.00 | 0.17 | 0.48 | 0.57 | 0.68 | 0.56 | 0.48 | 0.07 | 0.65 | 0.31 | 0.46 | 0.24 | 0.24 | 0.15 | 0.15 | 0.08 | 0.34 | 0.15 | cm.amp.cv.24hrs ToxPi (iPSC-CM): 0.22; cm.amp.cv.90min ToxPi (iPSC-CM): 0.27; cm.bpm.24hrs ToxPi (iPSC-CM): 0.15; cm.bpm.90min ToxPi (iPSC-CM): 0.74; cm.cam.24hrs ToxPi (iPSC-CM): 0.27; cm.cam.90min ToxPi (iPSC-CM): 0.75; cm.decay.rise.24hrs ToxPi (iPSC-CM): 0.27; cm.decay.rise.90min ToxPi (iPSC-CM): 0.58; cm.mii.24hrs ToxPi (iPSC-CM): 0.65; cm.mii.90min ToxPi (iPSC-CM): 0.40; cm.mito.24hrs ToxPi (iPSC-CM): 0.41; cm.mito.90min ToxPi (iPSC-CM): 0.81; cm.spacing.cv.24hrs ToxPi (iPSC-CM): 0.27; cm.spacing.cv.90min ToxPi (iPSC-CM): 0.08; cm.tc.24hrs ToxPi (iPSC-CM): 0.51; cm.tc.90min ToxPi (iPSC-CM): 0.81

Where a name gives a salt, the structure may show the parent alone.
